Not every detail of the peptide structures is certain; ends, links or a residue may be inferred. Residues, ends and D or L forms follow the SMILES beside them.
Tests used:
MAGI-1 PDZ1 domain = MAGI-1 PDZ1 domain (Homo sapiens, UniProt Q96QZ7); assay: Ligand binding assay with purified MAGI-1 PDZ1 domain
From the text: Ligand binding assay between TAT-ESAM and purified MAGI-1 PDZ1 or PDZ-3.
MAGI-1 PDZ3 domain was used as a control.

Amino acid sequences for entries named in this document (tags omitted). Residues count along the entry.
UniProt Q96QZ7, 472-554 limits assumed: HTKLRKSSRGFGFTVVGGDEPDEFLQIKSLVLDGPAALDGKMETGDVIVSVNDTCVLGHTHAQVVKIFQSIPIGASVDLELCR

MAGI-1 PDZ3 domain = assay: Ligand binding assay with purified MAGI-1 PDZ3 domain
CAR^Ex8 [1] = assay: Western blot / apical surface biotinylation of CAR^Ex8 in MDCK epithelia; format: cell-based, canine
From the text: (§1) MAGI-1 PDZ binding peptides (BP) can alter CAR^EX8 apical protein levels and AdV infection. […] A) MAGI-1 PDZ1 can rescue CAR^Ex8 expression while PDZ3 decreases CAR^EX8 expression. B) Peptides that bind to PDZ3 will prevent degradation of CAR^Ex8 and rescue CAR^EX8 expression and C) peptides that bind to PDZ1 will prevent rescue of CAR^Ex8 and […] CAR^Ex8 degradation. D) Apical surface-specific biotinylation of polarized MDCK epithelia treated with PDZ1 binding peptide decreases apical levels of CAR^EX8 while PDZ3 binding peptide increase apical CAR^EX8, relative to control. E) Treatment with PDZ3 binding peptide increases while PDZ1 binding peptide decreases AdV5-β-Gal entry as determined by qPCR for viral genomes (Vg). F) AdV5-Cre infection turns cells from red (uninfected) to green (infected) in tDT-mouse airway epithelial cells. Baseline infection in control-peptide treated airway epithelia show an even distribution of uninfected red cells and infected green cells.
(§2) (A) Western blotting of MDCK cells treated with either TAT-CAR^Ex8 or control TAT-CAR^Ex8-AA. […] (C) Polarized MDCK cells were treated with either TAT-CAR^Ex8 or TAT-ESAM and the apical surface subjected to apical surface biotinylation, followed by neutravidin pull down and Western blot of apical surface proteins. […] (E) TAT-cell permeable peptides interrupt MAGI-1-CAR^Ex8 interactions. […]

AdV [2] = assay: qPCR of AdV viral genome (transduction/entry) in MDCK epithelia; format: cell-based, canine; conditions: versus control
From the text: as §1, §2

CAR^Ex8 [3] = assay: Immunocytochemistry of CAR^Ex8 in polarized MDCK cells; format: cell-based, canine
From the text: CAR^Ex8 is localized mainly at the apical surface of polarized MDCK cells. […] Red (CAR^Ex8), Green (MAGI-1, a junctional protein), Blue (nucleus, DAPI). 60× oil immersion confocal microscopy.
(A) CAR^Ex8 (red) localizes mainly at the apical membrane of MDCK epithelial cells (see xz section). […] 60× oil immersion confocal microscopy.

CAR^Ex8 [4] = assay: Western blot of CAR^Ex8 in well differentiated primary human airway epithelia; format: cell-based; conditions: versus control
From the text: (A) Western blotting from human airway epithelia treated with either TAT-scramble or TAT-PDZ1 peptides (TAT-E6 or TAT-NET1). […] Actin was used to confirm equal protein loading.

AdV [5] = assay: qPCR of AdV viral genome in primary human airway epithelia; format: cell-based; conditions: versus control
AdV5-Cre = AdV5-Cre intranasal infection of tdT mice; format: in vivo, mouse

CC(C)C[C@H](NC(=O)[C@H](CO)NC(=O)CNC(=O)[C@H](C)NC(=O)[C@H](CCC(N)=O)NC(=O)[C@H](CO)NC(=O)[C@H](CCC(N)=O)NC(=O)[C@H](C)NC(=O)[C@H](CCC(N)=O)NC(=O)[C@@H]1CCCN1C(=O)[C@@H]1CCCN1C(=O)[C@H](CCCNC(=N)N)NC(=O)[C@H](CCCNC(=N)N)NC(=O)[C@H](CCCNC(=N)N)NC(=O)[C@H](CCC(N)=O)NC(=O)[C@H](CCCNC(=N)N)NC(=O)[C@H](CCCNC(=N)N)NC(=O)[C@H](CCCCN)NC(=O)[C@H](CCCCN)NC(=O)[C@H](CCCNC(=N)N)NC(=O)CN)C(=O)N[C@H](C(=O)O)C(C)C [TAT-ESAM] (H-GRKKRRQRRRPPQAQSQAGSLV-OH; N-terminus and C-terminus assumed)
Binding to MAGI-1 PDZ1 (MAGI-1 PDZ1 domain): does not bind
Kd (MAGI-1 PDZ3 domain): 0.017 ± 0.005 µM
Peptide-mediated increase of CAR^Ex8 upon pre-treatment with cycloheximide (CHX) (CAR^Ex8 [1]; MDCK epithelia, with CHX): reduced
Apical CAR^Ex8 (apical surface biotinylation) (CAR^Ex8 [1]; polarized MDCK epithelia): increase
AdV genomic transduction / entry (qPCR of viral genome) (AdV [2]): significant increase
CAR^Ex8 immunolocalization / cellular protein level (CAR^Ex8 [3]): upregulated in a vesicular pattern within the cytoplasm and at the apical surface
CAR^Ex8 protein level (Western blotting) (CAR^Ex8 [4]): increased
AdV genomic transduction / entry (qPCR of viral genome) (AdV [5]): significant increase
GFP expression (GFP positive cells per field of view, GFP mRNA) (AdV5-Cre; AdV5-Cre intranasal infection, versus control): increased
GFP expression in lung cryosections (GFP expressing cells, total GFP/Total RFP fluorescence) (AdV5-Cre; peptide 4 h prior to AdV5-Cre intranasal infection): significantly higher

From patent US10736971B2, “Peptide-based molecules for modulating car expression or accessibility and uses thereof” (Wright State University, priority 2015, dated 2020)
